Measurements reported in paper PMC4906395.
Results are given in words; binding and its absence hold for the method and conditions named. In cells and extracts the contact can be indirect. A yes stands for co-enrichment or nearness to the bait. Other partners may have been found. Where a sequence is shown, tags or fusion partners need not be part of it. Values belong to the molecule of their own block, whether it stands above or below them.

Chains of the proteins cited; added tags and fusions are not shown. Residues count along the entry.
UniProt Q8NBS9, residues 33-432: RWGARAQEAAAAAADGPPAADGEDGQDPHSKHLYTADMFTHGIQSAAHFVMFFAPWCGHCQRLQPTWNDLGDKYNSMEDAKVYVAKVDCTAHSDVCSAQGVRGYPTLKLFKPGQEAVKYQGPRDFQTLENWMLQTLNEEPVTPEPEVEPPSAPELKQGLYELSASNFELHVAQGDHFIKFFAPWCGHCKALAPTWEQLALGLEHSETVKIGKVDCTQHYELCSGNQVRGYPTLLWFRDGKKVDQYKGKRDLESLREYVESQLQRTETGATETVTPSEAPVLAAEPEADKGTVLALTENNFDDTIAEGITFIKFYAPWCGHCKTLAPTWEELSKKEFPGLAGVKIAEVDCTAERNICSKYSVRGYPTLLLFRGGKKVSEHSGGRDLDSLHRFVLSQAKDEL
UniProt P14314, residues 15-528: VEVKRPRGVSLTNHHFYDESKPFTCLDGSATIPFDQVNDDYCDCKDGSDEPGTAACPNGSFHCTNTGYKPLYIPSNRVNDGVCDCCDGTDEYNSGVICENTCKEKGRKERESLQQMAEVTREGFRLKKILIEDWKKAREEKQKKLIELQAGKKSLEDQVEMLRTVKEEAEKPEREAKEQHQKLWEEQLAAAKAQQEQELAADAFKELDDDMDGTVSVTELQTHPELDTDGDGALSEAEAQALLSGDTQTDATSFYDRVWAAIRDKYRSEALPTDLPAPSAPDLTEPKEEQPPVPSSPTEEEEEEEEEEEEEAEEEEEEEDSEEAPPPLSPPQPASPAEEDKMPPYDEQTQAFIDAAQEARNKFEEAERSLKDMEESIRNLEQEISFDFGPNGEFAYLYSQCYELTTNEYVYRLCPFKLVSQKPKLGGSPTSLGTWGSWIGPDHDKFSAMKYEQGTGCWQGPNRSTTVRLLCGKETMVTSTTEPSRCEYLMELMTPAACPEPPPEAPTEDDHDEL
UniProt P07237, residues 18-508: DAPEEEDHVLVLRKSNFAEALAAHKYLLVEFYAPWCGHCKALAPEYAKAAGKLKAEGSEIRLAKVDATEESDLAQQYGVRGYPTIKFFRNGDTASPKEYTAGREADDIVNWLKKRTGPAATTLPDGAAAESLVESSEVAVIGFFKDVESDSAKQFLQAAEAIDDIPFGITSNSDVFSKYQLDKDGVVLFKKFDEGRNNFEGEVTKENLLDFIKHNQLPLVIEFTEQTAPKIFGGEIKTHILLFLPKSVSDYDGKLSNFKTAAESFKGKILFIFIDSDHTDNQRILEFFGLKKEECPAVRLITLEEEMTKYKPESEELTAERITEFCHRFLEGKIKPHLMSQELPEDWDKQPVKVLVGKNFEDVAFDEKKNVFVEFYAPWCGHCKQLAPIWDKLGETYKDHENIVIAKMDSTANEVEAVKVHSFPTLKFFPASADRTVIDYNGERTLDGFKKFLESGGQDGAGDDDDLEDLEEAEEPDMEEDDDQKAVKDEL

Target: T1, Thioredoxin domain-containing protein 11 (TXNDC11) (human (endogenous; cell line of the immunoprecipitation not named)) (UniProt Q6PKC3)
T1 sequence: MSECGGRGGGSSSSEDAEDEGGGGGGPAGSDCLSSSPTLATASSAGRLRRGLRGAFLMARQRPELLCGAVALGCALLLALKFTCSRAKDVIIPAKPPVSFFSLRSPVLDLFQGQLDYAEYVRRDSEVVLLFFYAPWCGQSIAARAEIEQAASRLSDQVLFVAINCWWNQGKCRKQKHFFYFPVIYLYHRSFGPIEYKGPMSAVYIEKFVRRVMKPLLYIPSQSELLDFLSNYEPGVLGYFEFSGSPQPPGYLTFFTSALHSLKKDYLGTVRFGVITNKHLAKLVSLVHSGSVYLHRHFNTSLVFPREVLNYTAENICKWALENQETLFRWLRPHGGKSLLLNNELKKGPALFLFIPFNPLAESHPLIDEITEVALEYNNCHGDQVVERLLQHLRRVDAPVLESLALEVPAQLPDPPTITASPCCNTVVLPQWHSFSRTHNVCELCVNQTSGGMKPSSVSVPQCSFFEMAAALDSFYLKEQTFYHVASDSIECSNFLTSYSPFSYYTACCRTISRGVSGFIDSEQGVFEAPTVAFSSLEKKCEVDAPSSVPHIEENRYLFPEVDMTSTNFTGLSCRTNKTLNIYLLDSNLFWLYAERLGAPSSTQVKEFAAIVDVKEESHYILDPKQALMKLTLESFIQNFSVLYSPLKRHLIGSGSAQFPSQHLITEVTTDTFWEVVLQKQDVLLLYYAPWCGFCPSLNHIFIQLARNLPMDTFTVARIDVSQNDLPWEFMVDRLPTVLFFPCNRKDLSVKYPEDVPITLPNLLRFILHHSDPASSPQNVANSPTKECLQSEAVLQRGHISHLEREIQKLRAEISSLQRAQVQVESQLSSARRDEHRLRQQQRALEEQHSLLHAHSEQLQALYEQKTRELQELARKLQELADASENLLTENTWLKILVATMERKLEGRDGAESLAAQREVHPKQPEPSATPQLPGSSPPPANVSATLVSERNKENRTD
Test: affinity purification with mass spectrometry; endogenous TXNDC11 immunoprecipitated from 1% digitonin lysates of wild-type cells, TXNDC11 knockout cells as control; protein A- or protein G-sepharose, 2 h at 4 °C, three washes in lysis buffer; SDS-PAGE, in-gel digestion, LC-MS/MS

Molecule: Thioredoxin domain-containing protein 5 (TXNDC5) (from UniProt Q8NBS9 33-432) (enzyme)
binding: binds

B1: Glucosidase 2 subunit alpha (GANAB) (enzyme, UniProt Q14697 29-944)
chain: ITLAVDRSNFKTCEESSFCKRQRSIRPGLSPYRALLDSLQLGPDSLTVHLIHEVTKVLLVLELQGLQKNMTRFRIDELEPRRPRYRVPDVLVADPPIARLSVSGRDENSVELTMAEGPYKIILTARPFRLDLLEDRSLLLSVNARGLLEFEHQRAPRVSQGSKDPAEGDGAQPEETPRDGDKPEETQGKAEKDEPGAWEETFKTHSDSKPYGPMSVGLDFSLPGMEHVYGIPEHADNLRLKVTEGGEPYRLYNLDVFQYELYNPMALYGSVPVLLAHNPHRDLGIFWLNAAETWVDISSNTAGKTLFGKMMDYLQGSGETPQTDVRWMSETGIIDVFLLLGPSISDVFRQYASLTGTQALPPLFSLGYHQSRWNYRDEADVLEVDQGFDDHNLPCDVIWLDIEHADGKRYFTWDPSRFPQPRTMLERLASKRRKLVAIVDPHIKVDSGYRVHEELRNLGLYVKTRDGSDYEGWCWPGSAGYPDFTNPTMRAWWANMFSYDNYEGSAPNLFVWNDMNEPSVFNGPEVTMLKDAQHYGGWEHRDVHNIYGLYVHMATADGLRQRSGGMERPFVLARAFFAGSQRFGAVWTGDNTAEWDHLKISIPMCLSLGLVGLSFCGADVGGFFKNPEPELLVRWYQMGAYQPFFRAHAHLDTGRREPWLLPSQHNDIIRDALGQRYSLLPFWYTLLYQAHREGIPVMRPLWVQYPQDVTTFNIDDQYLLGDALLVHPVSDSGAHGVQVYLPGQGEVWYDIQSYQKHHGPQTLYLPVTLSSIPVFQRGGTIVPRWMRVRRSSECMKDDPITLFVALSPQGTAQGELFLDDGHTFNYQTRQEFLLRRFSFSGNTLVSSSADPEGHFETPIWIERVVIIGAGKPAAVVLQTKGSPESRLSFQHDPETSVLVLRKPGINVASDWSIHLR
binding: binds

B2: ER degradation-enhancing alpha-mannosidase-like protein 3 (EDEM3) (enzyme, UniProt Q9BZQ6 42-932)
chain: EPMSREEKQKLGNQVLEMFDHAYGNYMEHAYPADELMPLTCRGRVRGQEPSRGDVDDALGKFSLTLIDSLDTLVVLNKTKEFEDAVRKVLRDVNLDNDVVVSVFETNIRVLGGLLGGHSLAIMLKEKGEYMQWYNDELLQMAKQLGYKLLPAFNTTSGLPYPRINLKFGIRKPEARTGTETDTCTACAGTLILEFAALSRFTGATIFEEYARKALDFLWEKRQRSSNLVGVTINIHTGDWVRKDSGVGAGIDSYYEYLLKAYVLLGDDSFLERFNTHYDAIMRYISQPPLLLDVHIHKPMLNARTWMDALLAFFPGLQVLKGDIRPAIETHEMLYQVIKKHNFLPEAFTTDFRVHWAQHPLRPEFAESTYFLYKATGDPYYLEVGKTLIENLNKYARVPCGFAAMKDVRTGSHEDRMDSFFLAEMFKYLYLLFADKEDIIFDIEDYIFTTEAHLLPLWLSTTNQSISKKNTTSEYTELDDSNFDWTCPNTQILFPNDPLYAQSIREPLKNVVDKSCPRGIIRVEESFRSGAKPPLRARDFMATNPEHLEILKKMGVSLIHLKDGRVQLVQHAIQAASSIDAEDGLRFMQEMIELSSQQQKEQQLPPRAVQIVSHPFFGRVVLTAGPAQFGLDLSKHKETRGFVASSKPSNGCSELTNPEAVMGKIALIQRGQCMFAEKARNIQNAGAIGGIVIDDNEGSSSDTAPLFQMAGDGKDTDDIKIPMLFLFSKEGSIILDAIREYEEVEVLLSDKAKDRDPEMENEEQPSSENDSQNQSGEQISSSSQEVDLVDQESSEENSLNSHPESLSLADMDNAASISPSEQTSNPTENHETTNLNGECTDLDNQLQEQSETEEDSNPNVSWGKKVQPIDSILADWNEDIEAFEMMEKDEL
binding: binds

The next lines start with the values.

binding: binds
Molecule: Glucosidase 2 subunit beta (GLU2B) (from UniProt P14314 15-528)

binding: binds
Molecule: Protein disulphide-isomerase (PDI) (from UniProt P07237 18-508) (enzyme)

binding: binds
B3: ER degradation-enhancing alpha-mannosidase-like protein 2 (EDEM2) (enzyme, UniProt Q9BV94 22-578)
chain: APGPDGSAPDPAHYRERVKAMFYHAYDSYLENAFPFDELRPLTCDGHDTWGSFSLTLIDALDTLLILGNVSEFQRVVEVLQDSVDFDIDVNASVFETNIRVVGGLLSAHLLSKKAGVEVEAGWPCSGPLLRMAEEAARKLLPAFQTPTGMPYGTVNLLHGVNPGETPVTCTAGIGTFIVEFATLSSLTGDPVFEDVARVALMRLWESRSDIGLVGNHIDVLTGKWVAQDAGIGAGVDSYFEYLVKGAILLQDKKLMAMFLEYNKAIRNYTRFDDWYLWVQMYKGTVSMPVFQSLEAYWPGLQSLIGDIDNAMRTFLNYYTVWKQFGGLPEFYNIPQGYTVEKREGYPLRPELIESAMYLYRATGDPTLLELGRDAVESIEKISKVECGFATIKDLRDHKLDNRMESFFLAETVKYLYLLFDPTNFIHNNGSTFDAVITPYGECILGAGGYIFNTEAHPIDPAALHCCQRLKEEQWEVEDLMREFYSLKRSRSKFQKNTVSSGPWEPPARPGTLFSPENHDQARERKPAKQKVPLLSCPSQPFTSKLALLGQVFLDSS
